From publication PMC9355967
Results are given in words; binding and its absence hold for the method and conditions named. For some assays here: Binding calls can cover weak binding; strength is not graded here. For some assays here: Binding seen in cells or lysates may run through a third protein. Blank lines part the entries; values can stand above or below the substance they belong to.

The chains behind the UniProt entries cited, without tags or fusion partners. Where a name states a change or a piece, a line headed by the entry shows the natural chain unless it says otherwise. Residues count along the entry.
UniProt Q9QZQ1, residues 6-370: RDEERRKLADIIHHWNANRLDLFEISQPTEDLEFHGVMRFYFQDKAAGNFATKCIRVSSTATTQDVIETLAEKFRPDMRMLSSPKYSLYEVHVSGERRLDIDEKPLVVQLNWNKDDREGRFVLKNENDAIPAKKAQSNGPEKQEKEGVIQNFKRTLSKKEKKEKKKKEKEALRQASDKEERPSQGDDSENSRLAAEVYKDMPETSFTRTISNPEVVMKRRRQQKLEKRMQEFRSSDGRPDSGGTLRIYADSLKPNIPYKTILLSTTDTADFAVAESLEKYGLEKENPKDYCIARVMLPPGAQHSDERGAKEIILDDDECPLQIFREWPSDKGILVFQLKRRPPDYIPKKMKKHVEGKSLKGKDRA
UniProt P15056, residues 155-227: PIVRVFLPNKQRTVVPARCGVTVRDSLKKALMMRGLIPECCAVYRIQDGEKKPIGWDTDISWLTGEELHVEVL
UniProt Q14160: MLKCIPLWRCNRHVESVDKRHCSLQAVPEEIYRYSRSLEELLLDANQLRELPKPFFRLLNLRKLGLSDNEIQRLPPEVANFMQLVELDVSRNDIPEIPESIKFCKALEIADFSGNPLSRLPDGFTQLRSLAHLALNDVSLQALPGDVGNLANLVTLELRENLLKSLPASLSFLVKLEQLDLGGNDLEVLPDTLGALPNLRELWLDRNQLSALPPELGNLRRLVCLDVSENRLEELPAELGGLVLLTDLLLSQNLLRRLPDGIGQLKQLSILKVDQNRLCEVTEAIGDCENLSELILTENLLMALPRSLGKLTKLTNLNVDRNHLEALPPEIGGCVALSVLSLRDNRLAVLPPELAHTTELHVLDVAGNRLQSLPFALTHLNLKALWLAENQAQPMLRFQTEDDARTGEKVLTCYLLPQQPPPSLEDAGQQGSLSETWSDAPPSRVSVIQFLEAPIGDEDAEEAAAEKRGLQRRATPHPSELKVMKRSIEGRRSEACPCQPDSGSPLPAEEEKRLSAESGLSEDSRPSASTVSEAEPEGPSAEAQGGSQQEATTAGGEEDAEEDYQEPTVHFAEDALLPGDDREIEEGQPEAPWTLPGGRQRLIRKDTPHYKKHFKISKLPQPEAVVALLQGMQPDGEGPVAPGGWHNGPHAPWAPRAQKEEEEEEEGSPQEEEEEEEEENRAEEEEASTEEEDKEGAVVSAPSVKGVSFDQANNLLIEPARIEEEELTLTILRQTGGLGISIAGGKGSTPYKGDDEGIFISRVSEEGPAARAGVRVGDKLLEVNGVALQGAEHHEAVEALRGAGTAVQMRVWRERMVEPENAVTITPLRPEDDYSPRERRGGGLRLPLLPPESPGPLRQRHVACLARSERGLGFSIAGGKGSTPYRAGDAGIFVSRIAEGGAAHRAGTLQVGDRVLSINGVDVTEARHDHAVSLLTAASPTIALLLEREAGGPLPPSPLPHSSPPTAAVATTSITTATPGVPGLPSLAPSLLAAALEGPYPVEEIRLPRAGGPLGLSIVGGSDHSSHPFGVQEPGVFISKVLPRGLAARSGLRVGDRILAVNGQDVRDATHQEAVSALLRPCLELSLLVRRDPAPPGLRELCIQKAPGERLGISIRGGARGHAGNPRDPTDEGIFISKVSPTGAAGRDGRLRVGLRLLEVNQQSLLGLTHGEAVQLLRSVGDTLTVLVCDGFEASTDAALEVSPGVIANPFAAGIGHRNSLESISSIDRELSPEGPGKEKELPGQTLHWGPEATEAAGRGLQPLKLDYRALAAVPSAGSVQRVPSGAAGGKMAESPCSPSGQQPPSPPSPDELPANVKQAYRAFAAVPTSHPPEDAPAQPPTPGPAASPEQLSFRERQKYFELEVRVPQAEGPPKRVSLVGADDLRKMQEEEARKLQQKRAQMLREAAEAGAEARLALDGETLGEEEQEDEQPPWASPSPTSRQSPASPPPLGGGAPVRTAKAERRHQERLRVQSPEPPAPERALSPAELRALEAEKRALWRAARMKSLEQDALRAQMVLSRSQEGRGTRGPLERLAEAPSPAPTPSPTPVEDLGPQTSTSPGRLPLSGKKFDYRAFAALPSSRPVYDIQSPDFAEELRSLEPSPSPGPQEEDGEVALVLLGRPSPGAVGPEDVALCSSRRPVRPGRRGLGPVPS
UniProt Q96HU8: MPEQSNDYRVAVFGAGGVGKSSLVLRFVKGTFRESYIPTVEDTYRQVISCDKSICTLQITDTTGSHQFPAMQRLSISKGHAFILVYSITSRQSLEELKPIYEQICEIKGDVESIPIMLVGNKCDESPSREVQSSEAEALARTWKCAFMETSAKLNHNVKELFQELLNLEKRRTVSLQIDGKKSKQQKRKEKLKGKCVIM
UniProt P62834: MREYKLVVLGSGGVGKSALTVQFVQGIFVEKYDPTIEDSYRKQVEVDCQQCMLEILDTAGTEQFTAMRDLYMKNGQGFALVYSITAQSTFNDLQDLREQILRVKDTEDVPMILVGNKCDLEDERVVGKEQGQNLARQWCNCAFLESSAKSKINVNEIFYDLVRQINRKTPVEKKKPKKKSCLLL

Columns and labels:
[1] = target: GST fusion of the AFDN fragment encompassing the FHA domain (mouse) (UniProt Q9QZQ1); assay: pull-down; GST fusions purified from E. coli on glutathione beads mixed with lysates of mammalian cells expressing (or holding endogenous) SCRIB or AFDN; TX100 buffer with 10% glycerol and 1% NP-40; only the target purified
[2] = target: GST-AFDN RA1/2 (dual RA domains, residues 6-370) (mouse) (UniProt Q9QZQ1); assay: pull-down; GST-tagged RA/RBD domains purified from bacteria on glutathione beads mixed with lysates of cells expressing GTPases; beads washed 5X; anti-GFP blot; only the target purified
GST-BRAF RBD = GST-BRAF RBD (UniProt P15056); assay: as above
[3] = target: AFDNΔex9 (AFDN without residues 393-407 of the alternatively spliced exon 9) (mouse) (UniProt Q9QZQ1); assay: co-IP; IP of AFDNΔex9 following its co-transfection with SCRIB (Supplementary Fig. 3b); antibodies not told
[4] = target: GST-AFDN FHA domain construct ending at residue 590 (-ENR) (mouse) (UniProt Q9QZQ1); assay: pull-down; GST fusions purified from E. coli on glutathione beads mixed with lysates of mammalian cells expressing (or holding endogenous) SCRIB or AFDN; TX100 buffer with 10% glycerol and 1% NP-40; only the target purified
[5] = target: GST-AFDN FHA domain construct ending at residue 599 (-PEL) (mouse) (UniProt Q9QZQ1); assay: as above
[6] = target: GST-AFDN FHA domain construct ending at residue 610 (-RES) (mouse) (UniProt Q9QZQ1); assay: as above
[7] = target: GST-AFDN FHA domain construct ending at residue 590 (-ENR) (mouse) (UniProt Q9QZQ1); assay: pull-down; in vitro mixing: purified SCRIB PDZ1 added at 50 μM to glutathione beads bound to GST-fused AFDN FHA fragments; both purified
[8] = target: EGFP-tagged full-length SCRIB (human) (UniProt Q14160); assay: co-IP; co-transfected cells; anti-GFP IP, anti-FLAG blot (Fig. 2i, j)

Substance: EGFP-DIRAS2 with activating mutation (from UniProt Q96HU8)
binding [2]: no binding
binding (GST-BRAF RBD): no binding

Substance: full-length recombinant SCRIB expressed in mammalian cells (tag not told) (from UniProt Q14160 1-1655)
binding [3]: binds
binding [4]: binds
binding [5]: binds
binding [1]: binds
binding [6]: binds

Substance: AFDNΔFHA (full-length AFDN missing residues 370-600) (from UniProt Q9QZQ1)
binding [8]: no binding

Second part, the substance after the results:

binding [1]: binds
Substance: endogenous SCRIB in the lysates of Fig. 2f (from UniProt Q14160 1-1655)

binding [7]: binds
Substance: purified SCRIB PDZ1 domain (718-820) (from UniProt Q14160 718-820) (domain or fragment)

binding [2]: binds
Substance: EGFP-RAP1A with activating mutation (from UniProt P62834)
